Publication PMC5095516
Results are given in words; binding and its absence hold for the method and conditions named. In cells and extracts the contact can be indirect. Binding can be weak; no strength is given. Tags and fused reporters may be left off the sequences shown.

Target: T1, FLAG-tagged Lfc (UniProt Q60875)
T1 sequence: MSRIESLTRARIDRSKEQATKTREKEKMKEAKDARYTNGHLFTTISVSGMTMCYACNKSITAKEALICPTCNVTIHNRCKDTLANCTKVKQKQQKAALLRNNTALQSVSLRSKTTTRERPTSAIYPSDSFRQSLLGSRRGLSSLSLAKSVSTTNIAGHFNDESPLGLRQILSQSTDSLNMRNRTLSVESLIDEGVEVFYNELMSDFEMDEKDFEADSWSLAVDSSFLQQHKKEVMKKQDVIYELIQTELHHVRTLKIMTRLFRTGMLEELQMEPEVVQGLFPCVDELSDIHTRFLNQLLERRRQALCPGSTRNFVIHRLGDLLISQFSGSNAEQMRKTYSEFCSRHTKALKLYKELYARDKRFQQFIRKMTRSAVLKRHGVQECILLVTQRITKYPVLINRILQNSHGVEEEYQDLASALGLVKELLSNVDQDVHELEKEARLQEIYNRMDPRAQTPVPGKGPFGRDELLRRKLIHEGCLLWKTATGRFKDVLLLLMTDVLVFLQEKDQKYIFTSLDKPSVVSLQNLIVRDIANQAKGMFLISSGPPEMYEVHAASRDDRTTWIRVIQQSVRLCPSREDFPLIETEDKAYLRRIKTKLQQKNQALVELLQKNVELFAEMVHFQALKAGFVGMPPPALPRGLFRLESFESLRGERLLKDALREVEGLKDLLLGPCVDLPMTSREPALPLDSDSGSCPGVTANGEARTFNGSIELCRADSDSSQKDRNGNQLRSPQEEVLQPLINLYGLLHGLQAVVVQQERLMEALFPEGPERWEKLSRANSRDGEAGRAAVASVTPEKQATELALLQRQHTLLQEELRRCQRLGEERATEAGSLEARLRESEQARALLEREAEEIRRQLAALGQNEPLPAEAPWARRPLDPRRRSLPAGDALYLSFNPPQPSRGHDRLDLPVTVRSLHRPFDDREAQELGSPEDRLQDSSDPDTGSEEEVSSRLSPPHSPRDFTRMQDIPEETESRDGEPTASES
Assay: co-IP; lysate of HEK293T cells co-expressing FLAG-Lfc and HA-RhoA incubated with recombinant GST-tagged CaMKv domains before the co-immunoprecipitation of Lfc and RhoA; only the binder purified

## recombinant GST-tagged CaMKv CaM-binding domain (mouse) (domain or fragment)
  binding: binds
